Data taken from PMC12040169 (PLOS Biology, 2025).
This is one part of the list.

These molecules were tested on T1, CTL2-GFP (C. trachomatis L2/434/Bu, GFP-expressing). Settings: bulk GFP, single well; 28.5 h, 10 µM; inhibitor.
T1 construct: L2/434/Bu, GFP-expressing
Design: species or system HeLa; Intracellular C. trachomatis growth in HeLa cells, bulk GFP fluorescence relative to DMSO

| Compound | % of control remaining [%] |
| --- | --- |
| COc1cc(CN2CCNCC2)c2ccn(S(=O)(=O)c3cccc(Cl)c3C)c2c1 [CBK144484T] | 48.7932 |
| CCOc1ccc(C(=O)NC2CC3CCC(C2)N3Cc2ccc(OC)cc2)cc1 (stereo not drawn) [CBK121398] | 125.496 |
| CC(=O)N(C)c1nc(-c2ccco2)ccc1C(=O)Nc1cc(C)nn1C [CBK106356] | 138.031 |
| CSCCC(NC(=O)c1ccc(C#CC(C)(C)O)cc1)C(=O)O (stereo not drawn) [CBK276698] | 132.053 |
| CCOC(=O)CN1CCC(Oc2cncc(Oc3ccc(OC)c(OC)c3)n2)C1 (stereo not drawn) [CBK084405] | 126.563 |
| CCCC(=O)Nc1cccnc1N1CCNCC1 [CBK004732T] | 123.035 |
| C[N+]1(CC(=O)c2ccccc2)C2CCC1CC(OC(=O)C(O)c1ccccc1)C2 (stereo not drawn) [CBK022712C] | 124.512 |
| COCCc1nc(CN(C)C)n(Cc2ccccc2C)n1 [CBK307014] | 172.465 |
| Cc1ccc(N(CC(O)CN2CCCC2)S(=O)(=O)c2ccccc2)cc1 (stereo not drawn) [CBK264739] | 112.776 |
| CCCC(=O)N1CCC(Cc2ccc(-c3cccc(C)c3)cc2)(C(=O)NC(C)C)CC1 [CBK285760] | 142.101 |
| O=C(Nc1nc2ccccc2s1)NC1CC1 [CBK007542] | 98.3197 |
| O=C(O)CCn1c(CO)nc2ccccc21 [CBK111473] | 90.06 |
| CC(=O)OC(C(=O)O)C(OC(C)=O)c1nc2ccccc2s1 (stereo not drawn) [CBK264076] | 97.7857 |
| COC(=O)c1ccc(C(=O)OC)c(NC(=O)C2CCCCC2C(=O)O)c1 (stereo not drawn) [CBK265422] | 100 |
| CC(C)(C)C(=O)N1CCc2cc(C(O)CN3CCCC3)ccc21 (stereo not drawn) [CBK282923] | 115.756 |
| Cc1ccc(NC(=O)COC(=O)CCc2c[nH]c(=O)[nH]2)cc1 [CBK265562] | 101.356 |
| COc1cc(CC(=O)N2CCc3c(sc4ncnc(N)c34)C2)ccc1C [CBK306013] | 117.23 |
| Cc1ccc(N(C(=O)COc2ccc(C(C)(C)C)cc2)C2C=CS(=O)(=O)C2)cc1 (stereo not drawn) [CBK265811] | 115.159 |
| Cc1cc(O)cc(C2CCCN(C(=O)CC3CCCC3)C2)n1 (stereo not drawn) [CBK283422] | 121.162 |
| CCS(=O)(=O)c1nc2ccccc2n1CC(=O)Nc1ccccc1C(=O)OC [CBK267877] | 97.7978 |
| Cc1cc2occ(CC(=O)NCC(C)n3cncn3)c2cc1C (stereo not drawn) [CBK282614] | 108.414 |
| O=C(Nc1ccc(Cl)nc1)C(F)(F)F [CBK091339] | 76.3519 |
| O=C(CSc1ccccn1)Nc1ccc(C(=O)O)cc1 [CBK286605] | 148.528 |
| Cc1cc(C(=O)N2CCN(Cc3ccco3)C[C@@H]2C(C)C)c(C)[nH]1 [CBK284254] | 172.351 |
| Cc1nc(CC(=O)Nc2ccc(N3CCOCC3)cc2)cs1 [CBK304339] | 140.765 |
| O=C(NCCCNC(=O)c1ccc(Cl)cc1Cl)c1ccncc1 [CBK269372] | 80.1102 |

Four compounds picked at random from the list so far:

| Compound | % of control remaining [%] |
| --- | --- |
| COc1cc(CN2CCNCC2)c2ccn(S(=O)(=O)c3cccc(Cl)c3C)c2c1 [CBK144484T] | 48.7932 |
| Cc1ccc(NC(=O)COC(=O)CCc2c[nH]c(=O)[nH]2)cc1 [CBK265562] | 101.356 |
| Cc1cc(O)cc(C2CCCN(C(=O)CC3CCCC3)C2)n1 (stereo not drawn) [CBK283422] | 121.162 |
| Cc1ccc(N(C(=O)COc2ccc(C(C)(C)C)cc2)C2C=CS(=O)(=O)C2)cc1 (stereo not drawn) [CBK265811] | 115.159 |

Carrying on.

| Compound | % of control remaining [%] |
| --- | --- |
| CS(=O)(=O)N1CC2(CCN(Cc3cccc(C(F)(F)F)c3)CC2)c2ccccc21 [CBK126670] | 120.089 |
| O=C1CC(c2ccccc2)CC(=O)C1=CNCc1ccccn1 (stereo not drawn) [CBK262521] | 109.483 |
| CNC(=O)c1nc(NC)oc1C [CBK059214] | 103.917 |
| O=C(O)[C@@H]1CCCN1c1nc(O)cc(C(F)(F)F)n1 [CBK002865] | 102.079 |
| COc1ccc(Cl)cc1S(=O)(=O)N1CCC(C(=O)NCCCO)CC1 [CBK269835] | 104.073 |
| COC(=O)CCn1c(-c2ccncc2)cc2cccnc21 [CBK282592] | 120.394 |
| CN(Cc1ccc(-c2ccc(S(C)(=O)=O)cc2)nc1)C1CCN(C(=O)c2ccc(Cl)c(Cl)c2)CC1 [CBK164101T] | 109.457 |
| CC1(C)CC(=O)c2sc(NC(=O)c3ccc4ncccc4c3)nc2C1 [CBK144105] | 107.945 |
| O=C(Nc1ccccc1F)C1CCCN1c1nc(O)cc(C(F)(F)F)n1 (stereo not drawn) [CBK004307] | 84.9716 |
| CCOc1ccc(-c2ccnc(NCCNC(C)=O)n2)cc1C(=O)O [CBK306898] | 154.649 |
| O=C(c1ccco1)N1CCN(c2cncc(-c3cccc4cccnc34)n2)CC1 [CBK037339] | 120.229 |
| CCn1c(C)cc2cc(NC(=O)c3cnc(C)nc3C)ccc21 [CBK283260] | 76.757 |
| CN(CC(=O)Nc1nnc[nH]1)S(=O)(=O)c1ccc(Br)cc1 [CBK268618] | 141.858 |
| CSc1ccc(-c2nc(C)c(C(C)=O)n2O)cc1 [CBK288356] | 132.075 |
| COc1ccc2nc(Nc3nnc(-c4ccco4)o3)sc2c1 [CBK287486] | 119.083 |
| O=C(Cn1c(=O)n(Cc2cccs2)c2ncccc21)NC1CC1 [CBK283898] | 133.172 |
| C=CCn1c(-c2sc(NC(=O)c3ccc(Cl)cc3F)nc2C)n[nH]c1=S [CBK295361] | 143.553 |
| O=C(Cn1cccc2cc(C3CCCNC3)nc1-2)NC1CCCC1 (stereo not drawn) [CBK285015] | 107.678 |
| CC(C)(C)c1cc(N2C(=O)C(O)=C(C(=O)c3ccc(Cl)cc3)C2c2cccc([N+](=O)[O-])c2)no1 (stereo not drawn) [CBK263470] | 136.111 |
| COc1ccccc1C(=O)N[C@H]1C[C@@H](c2nc(-c3cnccn3)no2)N(C)C1 [CBK288850] | 109.794 |
| O=C(O)c1ccc(COc2cccc(/C=N\O)c2)cc1 [CBK288501] | 107.663 |
| C=CCNc1nccnc1-c1ccccc1OC [CBK036831] | 122.554 |
| COc1cc(CNc2cc(-c3ccc(NC(C)=O)cc3)ncn2)cc(OC)c1OC [CBK091185] | 183.593 |
| CC12CN3CC(C)(CN(C1)C3c1ccc([N+](=O)[O-])cc1)C2 (stereo not drawn) [CBK262665] | 92.6383 |
| O=C(O)CCC(=O)N1CCCc2ccccc21 [CBK051167] | 143.531 |
